The subject of this assay is BDF1 mice, Adenocarcinoma 755 s.c., tumor weight T/C. In words: NCI In Vivo Anticancer Drug Screen. Data for tumor model Adenocarcinoma 755 (subcutaneous) in B6D2F1 (BDF1) mice. The note with it: T/C endpoint: mean tumor weight, schedule: Q01DX011 (ip), higher T/C = larger tumour; for T/C: evaluated on day 12. As for the experimental part: The antitumor activity of compounds was measured in mice bearing transplantable tumors. Survival or tumor size were measured and the results are expressed as the measurement made in the treated group (T) divided by the measurement made in the vehicle treated control group (C). The tumor model used in this assay is Adenocarcinoma 755 (subcutaneous) in B6D2F1 (BDF1) mice

The mark [1] stands for this setting: dose: 2.0 mg/kg/injection, vehicle: saline.
The mark [2] stands for this setting: dose: 4.0 mg/kg/injection, vehicle: saline.

Here are results for eight compounds from PubChem BioAssay AID180 (DTP/NCI, 2004).

The list does not hold the whole screen: it covers a few groups of compounds. Not every dose and run of a compound is shown. T/C: endpoint of the treated group in % of that of the vehicle group. Schedule codes are those of the source, taken here to give the interval after Q, in days (D) or hours (H), and the number of doses after X. Some T/C values are followed by the survivors on the day toxicity was checked; where neither a count nor a note follows, no animal had died by that day. Some entries were tested several times; the values are given in rising order. Some entries give survivors of the animals treated and no T/C: the source files T/C as zero there, which appears to mark a toxic dose or a test without result, not a measured value. Survivors were counted at the toxicity check; its day is shown where the source gives one, and later deaths do not show.

For the compound `OC(CNCCCl)C(O)C(O)C(O)CNCCCl` (stereo not drawn), the T/C is, setting by setting: (dose: 0.63 mg/kg/injection, vehicle: saline) 24 % of control; (dose: 1.25 mg/kg/injection, vehicle: saline) 43 % of control; (dose: 2.24 mg/kg/injection, vehicle: carboxymethylcellulose (CMC)) 145 % of control; (dose: 2.5 mg/kg/injection, vehicle: saline) 12 % of control; (dose: 4.47 mg/kg/injection, vehicle: carboxymethylcellulose (CMC)) 64 % of control; (dose: 5.0 mg/kg/injection, vehicle: saline) 7 % of control [9 of 10 alive]. Besides, the T/C (dose: 5.23 mg/kg/injection, vehicle: carboxymethylcellulose (CMC)) is 88 % of control [9 of 10 alive]; the T/C (dose: 8.38 mg/kg/injection, vehicle: carboxymethylcellulose (CMC)) was 69 % of control; the T/C (dose: 8.95 mg/kg/injection, vehicle: carboxymethylcellulose (CMC)) is 89 % of control [9 of 10 alive]; the T/C (dose: 10.47 mg/kg/injection, vehicle: carboxymethylcellulose (CMC)) was 81 % of control [9 of 10 alive]; the T/C (dose: 10.48 mg/kg/injection, vehicle: carboxymethylcellulose (CMC)) is 98 % of control; the T/C (dose: 13.97 mg/kg/injection, vehicle: carboxymethylcellulose (CMC)) is 55 % of control. Further, the T/C reads like this: (dose: 16.9 mg/kg/injection, vehicle: carboxymethylcellulose (CMC)) 64 % of control; (dose: 20.95 mg/kg/injection, vehicle: carboxymethylcellulose (CMC)) 35 and 62 % of control [9 of 10 alive]; (dose: 41.9 mg/kg/injection, vehicle: carboxymethylcellulose (CMC)) 21 [8 of 10 alive] and 22 % of control [9 of 10 alive].

`CC1CNP(=O)(N(CCCl)CCCl)OC1` (stereo not drawn): the T/C is 88 % of control (dose: 22.0 mg/kg/injection, vehicle: methylcellulose (MC)); 76 % of control [9 of 10 alive] (dose: 44.0 mg/kg/injection, vehicle: methylcellulose (MC)); 67 % of control [9 of 10 alive] (dose: 88.0 mg/kg/injection, vehicle: methylcellulose (MC)); 23 % of control (dose: 175.0 mg/kg/injection, vehicle: methylcellulose (MC)). For the same compound, the survivor count by setting is: (dose: 225.0 mg/kg/injection, vehicle: methylcellulose (MC)) 2 of 10; (dose: 300.0 mg/kg/injection, vehicle: methylcellulose (MC)) 3 of 10.

Regarding `CC(C)N(CCCl)/N=N/c1nc2nc(N)[nH]c(=O)c2[nH]1`, the T/C reads like this: (dose: 25.0 mg/kg/injection, vehicle: methylcellulose (MC)) 85 % of control [9 of 10 alive]; (dose: 50.0 mg/kg/injection, vehicle: methylcellulose (MC)) 62 % of control [9 of 10 alive]; (dose: 100.0 mg/kg/injection, vehicle: methylcellulose (MC)) 41 % of control [7 of 10 alive]; (dose: 200.0 mg/kg/injection, vehicle: methylcellulose (MC)) 22 % of control [7 of 10 alive].

Regarding `O=C(O)COc1ccc(N(CCCl)CCCl)cc1`, the T/C by setting is: (dose: 0.25 mg/kg/injection, vehicle: carboxymethylcellulose (CMC)) 63 % of control; (dose: 0.5 mg/kg/injection, vehicle: carboxymethylcellulose (CMC)) 59 % of control; (dose: 1.0 mg/kg/injection, vehicle: carboxymethylcellulose (CMC)) 19 % of control; (dose: 2.0 mg/kg/injection, vehicle: carboxymethylcellulose (CMC)) 21 % of control; (dose: 2.0 mg/kg/injection, vehicle: methylcellulose (MC)) 51 % of control; under setting [1], 49 % of control. Besides, the T/C runs as follows: (dose: 4.0 mg/kg/injection, vehicle: methylcellulose (MC)) 33 % of control; under setting [2], 5 % of control; (dose: 8.0 mg/kg/injection, vehicle: methylcellulose (MC)) 28 % of control.

For `CC[C@H](C)[C@@H]1NC(=O)/C(=C(\C)O)C1=O`, the T/C runs as follows: (dose: 12.5 mg/kg/injection, vehicle: carboxymethylcellulose (CMC)) 89 % of control; (dose: 25.0 mg/kg/injection, vehicle: carboxymethylcellulose (CMC)) 59 % of control [9 of 10 alive]. Moreover, the survivor count by setting is: (dose: 50.0 mg/kg/injection, vehicle: carboxymethylcellulose (CMC)) 5 of 10; (dose: 100.0 mg/kg/injection, vehicle: carboxymethylcellulose (CMC)) 0 of 10.

On to `O=C(O)CCc1ccc(N(CCCl)CCCl)cc1`, for which the T/C reads like this: (dose: 1.0 mg/kg/injection, vehicle: saline) 41 % of control [8 of 10 alive]; under setting [1], 74 % of control; under setting [2], 65 % of control.

As for `O=NN1CCN/C1=N\[N+](=O)[O-]`, the T/C (dose: 40.0 mg/kg/injection, vehicle: methylcellulose (MC)) is 175 % of control; the T/C (dose: 80.0 mg/kg/injection, vehicle: methylcellulose (MC)) was 105 % of control; the T/C (dose: 160.0 mg/kg/injection, vehicle: methylcellulose (MC)) is 120 % of control [9 of 10 alive].

For the compound `O=C(O)CCc1cccc(N(CCCl)CCCl)c1`, the T/C reads like this: (dose: 4.5 mg/kg/injection, vehicle: methylcellulose (MC)) 61 [7 of 10 alive] and 66 % of control; (dose: 9.0 mg/kg/injection, vehicle: methylcellulose (MC)) 50 and 60 % of control [8 of 10 alive]; (dose: 18.0 mg/kg/injection, vehicle: methylcellulose (MC)) 23 % of control; (dose: 36.0 mg/kg/injection, vehicle: methylcellulose (MC)) 13 % of control [9 of 10 alive].
